No constants are given. Whether binding was seen depends on the method and setting. Binding seen in cells or lysates may run through a third protein. Some results given as binding are weak or reduced against the parent protein; the word gives no strength.

Protein sequences, listed by entry. Tags and fused reporters are not part of them. Lines headed by an entry give the natural chain unless they say otherwise; changes in a name come on top. Residues count along the entry.
UniProt P08238: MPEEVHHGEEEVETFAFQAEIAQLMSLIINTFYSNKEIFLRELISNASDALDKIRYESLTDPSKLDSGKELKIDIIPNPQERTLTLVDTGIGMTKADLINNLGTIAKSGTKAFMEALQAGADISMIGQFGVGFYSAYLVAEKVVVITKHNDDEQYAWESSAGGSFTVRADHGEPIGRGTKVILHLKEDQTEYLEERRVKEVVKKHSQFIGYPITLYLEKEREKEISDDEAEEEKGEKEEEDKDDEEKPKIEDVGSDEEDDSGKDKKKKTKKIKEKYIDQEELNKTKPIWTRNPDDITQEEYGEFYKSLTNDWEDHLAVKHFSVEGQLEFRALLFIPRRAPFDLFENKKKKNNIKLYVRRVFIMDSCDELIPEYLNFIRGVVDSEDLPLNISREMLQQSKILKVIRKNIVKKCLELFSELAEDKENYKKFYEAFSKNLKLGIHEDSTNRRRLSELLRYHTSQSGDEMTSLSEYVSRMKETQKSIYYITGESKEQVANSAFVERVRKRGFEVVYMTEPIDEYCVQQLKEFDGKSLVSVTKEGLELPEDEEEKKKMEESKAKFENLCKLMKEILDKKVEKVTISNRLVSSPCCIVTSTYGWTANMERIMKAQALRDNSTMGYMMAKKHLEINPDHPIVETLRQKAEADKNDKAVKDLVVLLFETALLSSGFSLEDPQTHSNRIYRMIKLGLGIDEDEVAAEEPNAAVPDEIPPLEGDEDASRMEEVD
UniProt P14780: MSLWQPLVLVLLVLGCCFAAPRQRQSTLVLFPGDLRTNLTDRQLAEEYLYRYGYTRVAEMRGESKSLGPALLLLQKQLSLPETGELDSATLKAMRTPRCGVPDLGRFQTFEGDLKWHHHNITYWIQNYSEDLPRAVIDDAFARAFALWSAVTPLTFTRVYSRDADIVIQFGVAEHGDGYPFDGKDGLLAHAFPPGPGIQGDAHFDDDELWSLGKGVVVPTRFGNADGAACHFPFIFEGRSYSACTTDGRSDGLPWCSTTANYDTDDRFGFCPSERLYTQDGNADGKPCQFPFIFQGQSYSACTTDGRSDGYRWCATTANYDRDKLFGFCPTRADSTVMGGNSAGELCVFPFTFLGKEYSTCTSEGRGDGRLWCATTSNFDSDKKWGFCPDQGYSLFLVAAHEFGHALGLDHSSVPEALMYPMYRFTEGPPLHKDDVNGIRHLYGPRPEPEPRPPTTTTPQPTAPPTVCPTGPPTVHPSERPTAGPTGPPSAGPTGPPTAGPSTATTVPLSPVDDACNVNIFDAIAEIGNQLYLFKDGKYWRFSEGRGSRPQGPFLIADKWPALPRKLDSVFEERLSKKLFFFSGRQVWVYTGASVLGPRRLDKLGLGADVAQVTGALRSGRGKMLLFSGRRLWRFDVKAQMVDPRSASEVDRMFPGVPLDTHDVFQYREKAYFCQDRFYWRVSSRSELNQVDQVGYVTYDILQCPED
pro-MMP9 (inactive pro-enzyme of matrix metalloproteinase 9) (human (endogenous in MDAMB453)): residues 20-707 of P14780
UniProt P08253, residues 30-660: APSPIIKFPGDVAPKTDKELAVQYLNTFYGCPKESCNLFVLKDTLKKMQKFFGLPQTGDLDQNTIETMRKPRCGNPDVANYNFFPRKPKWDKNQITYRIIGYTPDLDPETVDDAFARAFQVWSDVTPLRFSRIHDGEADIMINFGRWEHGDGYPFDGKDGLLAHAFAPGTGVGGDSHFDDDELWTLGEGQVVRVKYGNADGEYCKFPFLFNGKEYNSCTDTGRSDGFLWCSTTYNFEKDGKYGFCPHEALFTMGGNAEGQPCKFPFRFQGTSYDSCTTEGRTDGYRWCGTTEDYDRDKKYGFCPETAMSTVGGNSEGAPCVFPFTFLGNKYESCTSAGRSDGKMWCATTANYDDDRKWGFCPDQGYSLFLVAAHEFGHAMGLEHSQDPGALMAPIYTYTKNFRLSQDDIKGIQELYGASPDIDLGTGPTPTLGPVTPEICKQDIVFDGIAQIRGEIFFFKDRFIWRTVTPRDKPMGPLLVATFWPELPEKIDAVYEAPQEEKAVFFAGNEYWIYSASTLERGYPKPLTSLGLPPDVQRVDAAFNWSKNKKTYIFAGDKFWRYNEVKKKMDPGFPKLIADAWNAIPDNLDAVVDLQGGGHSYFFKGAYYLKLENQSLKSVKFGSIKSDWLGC

For experiment [1], the target named is heat shock protein 90 β isoform (HSP90β), secreted (human (endogenous in MDAMB453)) (UniProt P08238). As to the kind of experiment: co-IP; reverse: 100-fold concentrated culture supernatant of MDAMB453 cells immunoprecipitated with anti-HSP90α or anti-HSP90β overnight at 4°C, protein G-Sepharose; Western blot with anti-MMP2 or anti-MMP9.
For experiment [2], the target named is heat shock protein 90 α isoform (HSP90α), secreted (human (endogenous in MDAMB453)) (UniProt P07900). Described as above.
Experiment [3] deals with pro-MMP9 (inactive pro-enzyme of matrix metalloproteinase 9) (human (endogenous in MDAMB453)) (UniProt P14780). The experiment in a line: co-IP; 100-fold concentrated serum-free culture supernatant of MDAMB453 cells (control cultures); immunoprecipitated with anti-MMP2 or anti-MMP9 overnight at 4°C, protein G-Sepharose 2 h at room temperature, washed 3 times with lysis buffer; Western blot with anti-HSP90α or anti-HSP90β.

For experiment [4] the target is unchanged. As to the kind of experiment: condition: only cultures treated with 200 μg/ml mAb 4C5; co-IP; concentrated supernatant of MDAMB453 cultures exposed to 200 μg/ml mAb 4C5 for 24 h; immunoprecipitated with anti-MMP2 or anti-MMP9, protein A-Sepharose; Western blot with anti-HSP90α or anti-HSP90β.
For experiment [5], the target named is pro-MMP2 (inactive pro-enzyme of matrix metalloproteinase 2) (human (endogenous in MDAMB453)) (UniProt P08253). The experiment in a line: co-IP; 100-fold concentrated serum-free culture supernatant of MDAMB453 cells (control cultures); immunoprecipitated with anti-MMP2 or anti-MMP9 overnight at 4°C, protein G-Sepharose 2 h at room temperature, washed 3 times with lysis buffer; Western blot with anti-HSP90α or anti-HSP90β. Background: In western blotting, separated proteins are transferred to a membrane and probed.

Experiment [6] shares this target. As to the kind of experiment: condition: only cultures treated with 200 μg/ml mAb 4C5; co-IP; concentrated supernatant of MDAMB453 cultures exposed to 200 μg/ml mAb 4C5 for 24 h; immunoprecipitated with anti-MMP2 or anti-MMP9, protein A-Sepharose; Western blot with anti-HSP90α or anti-HSP90β.

“pro-MMP9 (inactive pro-enzyme of matrix metalloproteinase 9) (from UniProt P14780 20-707)”: the binding result in experiment [1] and in experiment [2] was “binds” each time.
For the substance “heat shock protein 90 α isoform (HSP90α), secreted (from UniProt P07900 1-732)”, the binding result was “binds” in experiment [3] and “no binding” in experiment [4].
“heat shock protein 90 β isoform (HSP90β), secreted (from UniProt P08238 1-724)”: the binding result in experiment [3] is listed as “binds”; in experiment [5], “binds”; in experiment [4], “no binding”; in experiment [6], “no binding”.
On to “activated (mature) form of MMP9 (from UniProt P14780 107-707) (enzyme)”, for which the binding result in experiment [1] and in experiment [2] was “binds” each time.
Turning to “pro-MMP2 (inactive pro-enzyme of matrix metalloproteinase 2) (from UniProt P08253 30-660)”, in experiment [1], the binding entry was “binds”.

The values are drawn from PMC2914660.
